Measurements reported in PubChem BioAssay AID652259 (Drosophila RNAi Screening Center, 2013).
The deposit covers about 22,000 reagents; this is a random part of those that have a named target and a result. Of all reagents, 233 (1.1%) were called active. 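Light values are raw, unnormalised plate reads; the ratio scores behind the reporter calls were not deposited.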 A plus sign joins genes that one reagent is predicted to hit. Not stated in the record: the amount of reagent, the time to read-out, the dose of the treatment.

Purpose: 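Genome-wide hunt for genes that control Wingless pathway activity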 (primary screen)
System: Drosophila clone 8 imaginal disc epithelial cells
Reagent: long dsRNA against Drosophila genes
Challenge: pathway stimulated by co-transfected Wingless expression plasmid
Detection: 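Dual luciferase reads per well after Wingless plasmid stimulation: reporter firefly light and Renilla control light; activity is firefly divided by Renilla, a ratio not deposited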
Scale: firefly reporter light: higher = more Wg reporter light, before normalisation; Renilla control light: higher = more transfected or surviving cells
Call rule: 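Strong candidates differ from their plate mean by at least two out of four per-plate statistical tests; weak candidates meet just one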
Calls: active = candidate regulator (raises or lowers reporter); inactive = not a candidate

no.	Gene	dsRNA	reporter change call, replicate 1	firefly reporter light, replicate 1	firefly reporter light, replicate 2	Renilla control light, replicate 1	Renilla control light, replicate 2	outcome
1	CG8773 (GeneID 41634)	DRSC16444		8315		3111		inactive
2	Alp10 (GeneID 38632)	DRSC09749		2304	6864	1226	5616	inactive
3	CG4313 (GeneID 31169)	DRSC18514		3330	7377	1104	1834	inactive
4	Rfk (GeneID 40936)	DRSC15454		4370		800		inactive
5	Tasp1 (GeneID 39757)	DRSC10495		3473		1769		inactive
6	AcCoAS (GeneID 40348)	DRSC11477		3866		1922		inactive
7	AcCoAS (GeneID 40348)	DRSC11603		3360		951		inactive
8	AcCoAS (GeneID 40348)	DRSC22850		7.03e5	7.37e5	2.09e5	2.41e5	inactive
9	ths (GeneID 36258)	DRSC06153		7349		881		inactive
10	CG31343 (GeneID 326133)	DRSC15887		2677	5444	1368	2257	inactive
11	E2f2 (GeneID 35381)	DRSC03320		11200		4357		inactive
12	Cox17 (GeneID 32439)	DRSC20145		29888		18677		inactive
13	Nab2 (GeneID 42897)	DRSC14158		4757	3367	1467	1434	inactive
14	CG11241 (GeneID 40492)	DRSC11641		9520		3337		inactive
15	CG11241 (GeneID 40492)	DRSC22165		6.80e5	6.60e5	2.64e5	2.51e5	inactive
16	CG7692 (GeneID 39934)	DRSC10902		6471		2692		inactive
17	Gyf (GeneID 43842)	DRSC17202		1984	5688	859	2096	inactive
18	CG30394 (GeneID 37437)	DRSC04074		2743	8947	678	2276	inactive
19	CG30394 (GeneID 37437)	DRSC04260		2550	4098	704	1712	inactive
20	CG31465 (GeneID 42577)	DRSC16090		2521	8001	954	2868	inactive
21	crok (GeneID 34646)	DRSC02593		3921	9690	1703	3946	inactive
22	crok (GeneID 34646)	DRSC21349		6.70e5	7.15e5	4.41e5	3.87e5	inactive
23	Cbp53E (GeneID 36905)	DRSC07356		15393		4676		inactive
24	CG13082 (GeneID 35244)	DRSC02186		1543	3121	460	1635	inactive
25	heca (GeneID 43604)	DRSC16964	Wg reporter activity raised	12115		1552		active
26	CG31688 + CG31687	DRSC02116		2784	9325	519	2027	inactive
27	CG43658 (GeneID 32729)	DRSC19455		19592		7988		inactive
28	CG43658 (GeneID 32729)	DRSC20111		25724		8963		inactive
29	Nap1 (GeneID 37798)	DRSC04626		19457		6407		inactive
30	twy (GeneID 39330)	DRSC10562		7165		3213		inactive
31	CCT8 (GeneID 35882)	DRSC07130		6203		1856		inactive
32	mRpS35 (GeneID 38345)	DRSC08551		7067		1953		inactive
33	Ggamma1 (GeneID 35881)	DRSC07435		9431		3033		inactive
34	CG33919 (GeneID 3772720)	DRSC04940		22285		12684		inactive
35	CG16717 (GeneID 39129)	DRSC10221		9292		3819		inactive
36	milt (GeneID 45683)	DRSC00965		15504		7129		inactive
37	milt (GeneID 45683)	DRSC00966		16480		8073		inactive
38	milt (GeneID 45683)	DRSC02281		18852		7477		inactive
39	ranshi (GeneID 41041)	DRSC16564		15356		4045		inactive
40	CG6839 (GeneID 40067)	DRSC10723		4314		1498		inactive
41	CG8892 (GeneID 33719)	DRSC03121		7334		3165		inactive
42	Bili (GeneID 43019)	DRSC14405		4256	6765	1491	1274	inactive
43	CG5447 (GeneID 43192)	DRSC15801		42281		33507		inactive
44	Der-2 (GeneID 42005)	DRSC15021		15922		4122		inactive
45	CG11566 (retired record) + stg1	DRSC20473		18336		3404		inactive
46	CG11566 (retired record) + stg1	DRSC20481		16176		8853		inactive
47	CG11566 (retired record) + stg1	DRSC20482		22050		9206		inactive
48	CG11566 (retired record) + stg1	DRSC20483		26147		8829		inactive
49	dpp (GeneID 33432)	DRSC00118		13946		10746		inactive
50	dpp (GeneID 33432)	DRSC00121		25291		11528		inactive
51	dpp (GeneID 33432)	DRSC00813		2864	6853	1040	2121	inactive
52	CG5819 (GeneID 37547)	DRSC04520		2215	5652	641	3474	inactive
53	spn-A (GeneID 43577)	DRSC16812		7945		2483		inactive
54	CG42445 (GeneID 8674111)	DRSC10858		9212		2560		inactive
55	Myo31DF (GeneID 34445)	DRSC03376		21505		8101		inactive
56	Myo31DF (GeneID 34445)	DRSC22702		3.58e5	4.85e5	1.97e5	1.52e5	inactive
57	CG34230 (GeneID 5740558)	DRSC05317		17081		17552		inactive
58	Ca-alpha1T (GeneID 31550)	DRSC17842		14553		8355		inactive
59	Ca-alpha1T (GeneID 31550)	DRSC18103		24875		13841		inactive
60	Ca-alpha1T (GeneID 31550)	DRSC18356		14598		5424		inactive
61	Ca-alpha1T (GeneID 31550)	DRSC18357		15884		7922		inactive
62	Ca-alpha1T (GeneID 31550)	DRSC21430		2.70e5	3.63e5	1.44e5	1.37e5	inactive
63	CG42404 (GeneID 41842)	DRSC15558		10856		4103		inactive
64	sordd2 + sordd1	DRSC20136		4205	6971	1504	2822	inactive
65	SF1 (GeneID 43912)	DRSC16844		11333		3488		inactive
66	Ret (GeneID 43875)	DRSC03409		8668		2869		inactive
67	Ret (GeneID 43875)	DRSC03410		2561	5228	979	2605	inactive
68	UQCR-6.4 (GeneID 36991)	DRSC06454		6433		2432		inactive
69	Dscam2 (GeneID 38788)	DRSC08869		4747		2231		inactive
70	Dscam2 (GeneID 38788)	DRSC10198		1889	7287	1652	3064	inactive
71	Dscam2 (GeneID 38788)	DRSC10285		1376	5654	336	555	inactive
72	Dscam2 (GeneID 38788)	DRSC11018		1568	5559	1312	2356	inactive
73	Dscam2 (GeneID 38788)	DRSC11019		1004	9616	1052	3942	inactive
74	Dscam2 (GeneID 38788)	DRSC22526		6.07e5	6.36e5	1.97e5	1.85e5	inactive
